Assay results as given in patent publication US10273202B2, “Nitroxyl progenitor compounds and methods of use” (The Johns Hopkins University, priority 2004, dated 2019).

Tested on: methemoglobin
Assay: Spectrophotometric detection of HNO by trapping with methemoglobin

With [Na+].[Na+].[O-][N+]([O-])=NO [AS, Angeli's salt] the “iron-nitrosyl (Fe(II)NO) absorption band between 530 and 600 nm” value (deaerated methemoglobin 50 μM, 100 μM donor) was “distinct absorption band due to the iron-nitrosyl (Fe(II)NO) complex is observed” and the “iron-nitrosyl absorption band in the presence of glutathione” value (methemoglobin 50 μM, 1 mM glutathione) was “completely quenched”.
